Reference: PubChem BioAssay AID1745850 (National Center for Advancing Translational Sciences (NCATS), 2022)
Out of some 2,100 compounds screened, about 260 (12%) were called active. This list was built around the results that the source calls inconclusive (neither active nor inactive); the mix of calls is not that of the screen. Calls come from the whole dose curve; as a rule, active = well fitted cell-killing curve with a large enough effect; inconclusive = small, poorly fitted or top-dose-only effect, or effect the other way; inactive = flat fitted curve, though single readings scatter. A potency beside an inconclusive call is a rough fit, not a confirmed value.
Potency is the fitted concentration of half-maximal effect.

Assay: Viability Counterscreen for Confirmatory qHTS for Inhibitors of ATXN expression; note: nearly all actives have a fitted effect of over 50% in size
Conditions: HEK-293 ATXN2-luc cells viability, CellTiter-Fluor, 24 h
Summary of the method: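 Cells with an ATXN2-luciferase reporter were dosed in a dilution series for 24 h at 37 degrees C. Viability was read first with Gly-Phe-AFC at 25 uM final (fluorescence, ex 405/em 540), then SteadyGlo luminescence. Medium-only wells defined 100% inhibition.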
With Cc1cc(SCC(=O)OC/C(O)=C(\C#N)c2nc3ccccc3[nH]2)c(C)cc1Br the Potency was inconclusive: 22.4 µM [cytotoxic, single point].
For Cc1ccc(Cc2cnc(N3C(=N)SC(C)C3=O)s2)cc1 (configuration not stated), the Potency was “inactive”.
In the case of S=C(Nc1ccccc1)Nc1ccc(OCc2ccc(Cl)cc2Cl)cc1, the Potency was “inactive”.
For CN1OC[C@@H]2CN[C@H](c3ccc(-c4cc5ccccc5o4)cc3)C[C@@H]21, the Potency was inconclusive: 39.8 µM [cytotoxic, partial curve, poor fit].
For O=C(CCSc1nc2ccccc2s1)N/N=C/c1c(O)ccc2ccccc12, the Potency was inconclusive: 10 µM [cytotoxic, partial curve].
In the case of CCN(CC)S(=O)(=O)c1ccc(NC(=O)Nc2cccc(C(F)(F)F)c2)cc1, the Potency was “inactive”.
In the case of O=C(CCCN1C(=O)/C(=C/c2ccccc2Cl)SC1=S)NNC(=O)c1ccc(Cl)cc1, the Potency was inconclusive: 39.8 µM [cytotoxic, partial curve, poor fit].
With Cn1nc(C(=O)N2CCN(c3ccc(Cl)cc3)CC2)c2c1-c1ccccc1S(=O)(=O)C2 the Potency was “inactive”.
In the case of CC(=O)N1c2ccc(S(=O)(=O)N3CCC(C(=O)Nc4cccc(C(F)(F)F)c4)CC3)cc2CC1C (configuration not stated), the Potency was inconclusive: 28.2 µM [cytotoxic, partial curve, poor fit].
With COCc1ccc(CN2CCC(C(=O)Nc3cccc(-c4cccc(Cl)c4)c3)CC2)o1 the Potency was inconclusive: 25.1 µM [cytotoxic, single point].
With Cc1ccccc1NC(=O)CSc1n[nH]c(-c2ccccn2)n1 the Potency was inconclusive: 22.4 µM [cytotoxic, single point].
For Cn1nnnc1Sc1ncnc2scc(-c3cccs3)c12, the Potency was inconclusive: 15.8 µM [cytotoxic, partial curve].
With N#Cc1nc(Cc2cccc3ccccc23)oc1NCc1ccc(F)cc1 the Potency was inconclusive: 39.8 µM [cytotoxic, single point].
In the case of COc1cccc(C2CC(c3c(-c4ccccc4)c4cc(Cl)ccc4[nH]c3=O)=NN2S(C)(=O)=O)c1OC (configuration not stated), the Potency was “inactive”.
For Cc1cccc(NC(=O)c2cc(-c3ccccn3)nc3ccccc23)c1C, the Potency was inconclusive: 22.4 µM [cytotoxic, partial curve, poor fit].
With COC(=O)c1cn(NC(=O)c2cc([N+](=O)[O-])ccc2F)c(=O)c2ccccc12 the Potency was inconclusive: 8.91 µM [cytotoxic, partial curve, poor fit].
With CCCc1cc(=O)n2[nH]cc(-c3ccc(Cl)cc3)c2n1 the Potency was inconclusive: 2.82 µM [cytotoxic, partial curve, poor fit].
In the case of O=C(N/N=C(\Cc1ncc[nH]1)c1ccccc1)c1cccnc1, the Potency was “inactive”.
In the case of CC(=O)NC(c1cccc([N+](=O)[O-])c1)c1ccc2cccnc2c1O (configuration not stated), the Potency was inconclusive: 1.78 µM [cytotoxic, partial curve].
For COC(=O)c1ccccc1COc1cccn2c(N(C)Cc3cccs3)c(C)nc12, the Potency was inconclusive: 39.8 µM [cytotoxic, single point].
With COc1ccc(OCC(=O)N/N=C/c2cccc3cccnc23)cc1 the Potency was inconclusive: 31.6 µM [cytotoxic, single point].
For CCc1ccc(CNC(=O)C2CCN(c3nnc(C)c4c(C)n(-c5ccc(C)cc5)nc34)CC2)cc1, the Potency was active: 20 µM.
For COc1ccc(CNC(=O)CSc2nc(-c3ccccc3)cc(-c3cccs3)c2C#N)cc1, the Potency was “inactive”.
In the case of CCOc1ccc2[nH]c3c(NCCc4ccc(OC)c(OC)c4)ncnc3c2c1, the Potency was inconclusive: 25.1 µM [cytotoxic, single point].
For CC(=O)C(=Cc1cccc(C#N)c1)C(=O)c1ccccc1, the Potency was inconclusive: 39.8 µM [cytotoxic, single point].
With COc1cc(/C=N/Nc2ccc(Cl)c(C(=O)O)c2)ccc1OC(=O)c1ccco1 the Potency was “inactive”.
With CCCN(CCC)S(=O)(=O)c1ccc(C(=O)Nc2nnc(-c3cc(OC)cc(OC)c3)o2)cc1 the Potency was inconclusive: 15.8 µM [cytotoxic, partial curve].
For Cc1ccc(Cl)cc1N1CCN(C(=O)CCS(=O)(=O)c2ccc3c(c2)NC(=O)CO3)CC1, the Potency was inconclusive: 25.1 µM [cytotoxic, single point].
For O=C(CN1C(=O)c2ccccc2S1(=O)=O)c1ccc(O)c(O)c1, the Potency was “inactive”.
For COc1ccccc1/C=C/CN1CCCC(CO)(Cc2cccc(Cl)c2)C1 (configuration not stated), the Potency was inconclusive: 28.2 µM [cytotoxic, single point].
For COc1cc(NC(=O)c2cccc3c(-c4cnn(C)c4)coc23)cc(OC)c1OC, the Potency was active: 31.6 µM.
In the case of COc1cccc(/C=C2\SC(=S)N(CCCC(=O)N(CCO)c3ccccc3)C2=O)c1, the Potency was inconclusive: 3.16 µM [cytotoxic, single point].
In the case of O[C@@H]1[C@@H](O)C=C2CCN3Cc4cc5c(cc4[C@H]1C23)OCO5 (some centres not stated), the Potency was inconclusive: 7.08 µM [cytotoxic, partial curve].
In the case of Cc1cc(N2CCN(C)CC2)ccc1NC(=O)c1ccc(-c2ccc(Cl)cc2)o1, the Potency was inconclusive: 25.1 µM [cytotoxic, single point].
With O=C(NC(Nc1ncc(S(=O)(=O)c2ccc([N+](=O)[O-])cc2)s1)(C(F)(F)F)C(F)(F)F)c1ccc(Cl)cc1 the Potency was active: 10 µM.
For Cc1cccc(NC2=Nc3ccccc3N3C2=Nc2c(c(C)nn2-c2ccccc2)C3c2ccc(O)c(O)c2)c1 (configuration not stated), the Potency was inconclusive: 0.447 µM [rising, full curve, poor fit].
For CCCCOc1ccc(C(=O)NNC(=S)NC(=O)CC)cc1, the Potency was inconclusive: 15.8 µM [cytotoxic, partial curve].
With CN(Cc1cnc2nc(N)nc(N)c2n1)c1ccc(C(=O)N[C@@H](CCC(=O)O)C(=O)O)cc1 the Potency was inconclusive: 5.01 µM [cytotoxic, partial curve].
With CCN(CC)CCNc1ccc(CO)c2sc3ccccc3c(=O)c12 the Potency was active: 20 µM.
With CC1Cc2cc(-c3csc(NC(=O)Cc4cccs4)n3)ccc2N1S(C)(=O)=O (configuration not stated) the Potency was inconclusive: 3.16 µM [cytotoxic, single point].
With Cc1cc(N/N=C/c2ccccc2[N+](=O)[O-])nc(-n2nc(C)cc2C)n1 the Potency was active: 12.6 µM.
For COc1cccc(/C=N/NC(=O)c2c(C)nc3ccc(Cl)cn23)c1O, the Potency was inconclusive: 3.98 µM [cytotoxic, full curve].
In the case of COc1cc(C(=O)NCc2ccncc2)cc(Br)c1OCc1ccccc1, the Potency was inconclusive: 3.16 µM [cytotoxic, single point].
For COc1cnc(-c2ccccn2)nc1NC(C)C, the Potency was active: 10 µM.
For CN[C@H]1C[C@H]2c3[nH]c4ccc(-c5ccc(OC)cc5)cc4c3CCN2C(=O)[C@H]1[C@H](C)O, the Potency was inconclusive: 6.31 µM [cytotoxic, single point].
With Nc1nc(NCCc2ccccc2)nc(NCc2ccccc2)c1[N+](=O)[O-] the Potency was inconclusive: 39.8 µM [cytotoxic, single point].
For O=C(/C=C/c1ccccc1)NC(=S)NNC(=O)c1cnccn1, the Potency was inconclusive: 15.8 µM [cytotoxic, partial curve, poor fit].
In the case of COc1ccc2c(c1)CC(N1CCN(C)CC1)c1cc(OC)ccc1S2 (configuration not stated), the Potency was active: 28.2 µM.
With COc1cc(C)c(C(=O)CC(=O)c2c(C)cc(OC)cc2C)c(C)c1 the Potency was “inactive”.
With CCCC(=O)NC(c1ccccc1)c1ccc2cccnc2c1O (configuration not stated) the Potency was inconclusive: 5.62 µM [cytotoxic, full curve].
With Nc1ccn([C@@H]2O[C@H](CO)[C@@H](O)[C@@H]2O)c(=O)n1 the Potency was “inactive”.
In the case of COCc1cc(CN2CCCC2)c(O)c2ncccc12, the Potency was “inactive”.
With Cc1[nH]c(-c2ccc(F)cc2)cc1C(=O)N1CCN(c2ccc(Cl)cc2)CC1 the Potency was inconclusive: 35.5 µM [cytotoxic, single point].
In the case of CC(C)(C)c1ccc(Oc2ccc(N)cc2)cc1, the Potency was “inactive”.
In the case of O=C(CCCC(=O)Nc1cccc(Br)c1)N/N=C/c1cc([N+](=O)[O-])ccc1O, the Potency was inconclusive: 3.55 µM [cytotoxic, single point].
With CCOc1ccc(-c2nnc(Nc3ccc(OC)c(C(=O)N4CCCCC4)c3)c3ccccc23)cc1 the Potency was inconclusive: 3.55 µM [cytotoxic, single point].
For O=C(N/N=C/c1cc(O)ccc1Br)c1cccnc1, the Potency was inconclusive: 4.47 µM [cytotoxic, full curve].
In the case of Cc1cc(C)nc(NNS(=O)(=O)c2ccc(F)c(Cl)c2)n1, the Potency was “inactive”.
In the case of CCC(C)n1cnc2c(c1=O)c1nc3ccccc3nc1n2-c1ccc2c(c1)OCCO2 (configuration not stated), the Potency was “inactive”.
For Cc1cc(C)c(C(=O)/C=C/c2ccc(C(C)C)cc2)c(=O)[nH]1, the Potency was inconclusive: 39.8 µM [cytotoxic, single point].
For O=C(N/N=C/c1cc(Cl)ccc1O)c1ccccc1Br, the Potency was inconclusive: 11.2 µM [cytotoxic, partial curve].
With CN(CCOc1ccc(Cl)cc1)C(=O)c1cc(S(=O)(=O)N2CCOCC2)ccc1N1CCCC1 the Potency was inconclusive: 3.16 µM [cytotoxic, single point].
With O=C(NC1=CC(=O)c2ccccc2C1=O)c1ccccc1 the Potency was active: 14.1 µM.
For Cc1ccc(O)c(CNCCNCc2cc(C)ccc2O)c1, the Potency was inconclusive: 31.6 µM [cytotoxic, partial curve].
With O=C(Cn1c(=O)n(CC(=O)NCc2ccccc2)c2ccccc21)NCc1ccccc1 the Potency was inconclusive: 39.8 µM [cytotoxic, single point].
With Cc1ccccc1SCC(=O)N1CCN(c2ccc(C(F)(F)F)cn2)CC1 the Potency was “inactive”.
For CCCCOc1ccc(C(=O)NNC(=O)c2cnccn2)cc1OC, the Potency was inconclusive: 31.6 µM [cytotoxic, single point].
